Results are given in words; binding and its absence hold for the method and conditions named. In cells and extracts the contact can be indirect. Some entries that bind do so weakly or less than the wild type. For some assays here: Where a sequence is shown, tags or fusion partners need not be part of it.

By UniProt entry, the sequences of proteins in these tests, tags left out.
UniProt P40073: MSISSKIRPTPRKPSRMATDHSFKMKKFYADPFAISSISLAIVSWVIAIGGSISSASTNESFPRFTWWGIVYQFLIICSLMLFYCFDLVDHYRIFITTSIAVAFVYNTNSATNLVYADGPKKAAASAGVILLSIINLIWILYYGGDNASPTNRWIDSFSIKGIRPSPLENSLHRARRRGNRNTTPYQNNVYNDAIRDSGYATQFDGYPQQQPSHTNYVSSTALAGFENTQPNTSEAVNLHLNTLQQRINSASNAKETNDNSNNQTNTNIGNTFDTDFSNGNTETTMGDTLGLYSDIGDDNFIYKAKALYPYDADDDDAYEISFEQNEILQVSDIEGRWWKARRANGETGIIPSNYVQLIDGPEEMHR

In test [1] the target is T1, Nbp2-DHFR F[1,2]-FLAG (WT bait) (S. cerevisiae) (UniProt Q12163).
T1 sequence: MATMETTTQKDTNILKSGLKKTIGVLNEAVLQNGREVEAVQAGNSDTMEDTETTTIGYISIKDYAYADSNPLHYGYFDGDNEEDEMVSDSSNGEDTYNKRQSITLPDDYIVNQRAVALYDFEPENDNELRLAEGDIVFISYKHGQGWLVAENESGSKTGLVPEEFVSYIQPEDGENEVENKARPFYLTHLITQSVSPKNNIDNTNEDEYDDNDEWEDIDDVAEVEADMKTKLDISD
Briefly: split reporter.

For test [2], the target named is Sho1-DHFR F[1,2]-FLAG (WT bait) (S. cerevisiae) (UniProt P40073). Briefly: split reporter.

B1: Pbs2-DHFR F[3] (protein, UniProt P08018 1-668)
chain: MEDKFANLSLHEKTGKSSIQLNEQTGSDNGSAVKRTSSTSSHYNNINADLHARVKAFQEQRALKRSASVGSNQSEQDKGSSQSPKHIQQIVNKPLPPLPVAGSSKVSQRMSSQVVQASSKSTLKNVLDNQETQNITDVNINIDTTKITATTIGVNTGLPATDITPSVSNTASATHKAQLLNPNRRAPRRPLSTQHPTRPNVAPHKAPAIINTPKQSLSARRGLKLPPGGMSLKMPTKTAQQPQQFAPSPSNKKHIETLSNSKVVEGKRSNPGSLINGVQSTSTSSSTEGPHDTVGTTPRTGNSNNSSNSGSSGGGGLFANFSKYVDIKSGSLNFAGKLSLSSKGIDFSNGSSSRITLDELEFLDELGHGNYGNVSKVLHKPTNVIMATKEVRLELDEAKFRQILMELEVLHKCNSPYIVDFYGAFFIEGAVYMCMEYMDGGSLDKIYDESSEIGGIDEPQLAFIANAVIHGLKELKEQHNIIHRDVKPTNILCSANQGTVKLCDFGVSGNLVASLAKTNIGCQSYMAPERIKSLNPDRATYTVQSDIWSLGLSILEMALGRYPYPPETYDNIFSQLSAIVDGPPPRLPSDKFSSDAQDFVSLCLQKIPERRPTYAALTEHPWLVKYRNQDVHMSEYITERLERRNKILRERGENGLSKNVPALHMGGL
For B1, the binding entry in test [1] and in test [2] was “binds” in each case.
